No constants are given. Whether binding was seen depends on the method and setting. In cells and extracts the contact can be indirect. Some entries that bind do so weakly or less than the wild type.
Target: Hsp72 (HSPA1A), heat shock 70 kDa protein 1A (human (endogenous in HEK293)) (UniProt P0DMV8)
Experiment: co-IP; 200 µg lysate of HEK293 cells transfected with pcDNA3.1-HEV ORF2, precipitated with 2 µg anti-Hsp72 antibody or control IgG, protein A/G agarose beads, washed with PBST; Western blot with anti-His-probe antibody

Chains of the proteins cited; added tags and fusions are not shown. Residues count along the entry.
UniProt P0DMV8: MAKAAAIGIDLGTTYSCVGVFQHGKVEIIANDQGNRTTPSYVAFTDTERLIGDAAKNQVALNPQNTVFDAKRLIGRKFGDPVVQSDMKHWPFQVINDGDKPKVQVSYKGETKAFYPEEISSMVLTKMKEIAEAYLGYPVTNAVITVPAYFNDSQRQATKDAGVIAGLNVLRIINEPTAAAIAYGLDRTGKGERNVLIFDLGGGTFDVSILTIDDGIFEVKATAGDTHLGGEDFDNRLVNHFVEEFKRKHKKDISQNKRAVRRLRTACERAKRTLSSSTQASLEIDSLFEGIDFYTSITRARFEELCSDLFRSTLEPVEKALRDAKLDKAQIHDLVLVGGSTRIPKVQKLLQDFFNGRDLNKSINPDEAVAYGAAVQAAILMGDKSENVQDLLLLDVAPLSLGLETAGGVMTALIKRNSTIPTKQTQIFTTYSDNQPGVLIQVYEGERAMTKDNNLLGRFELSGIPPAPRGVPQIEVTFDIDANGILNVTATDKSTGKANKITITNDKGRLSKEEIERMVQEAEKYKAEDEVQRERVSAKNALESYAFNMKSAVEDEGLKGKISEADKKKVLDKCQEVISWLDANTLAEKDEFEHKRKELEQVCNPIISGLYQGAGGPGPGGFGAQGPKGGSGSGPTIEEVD
UniProt P33426, residues 20-660: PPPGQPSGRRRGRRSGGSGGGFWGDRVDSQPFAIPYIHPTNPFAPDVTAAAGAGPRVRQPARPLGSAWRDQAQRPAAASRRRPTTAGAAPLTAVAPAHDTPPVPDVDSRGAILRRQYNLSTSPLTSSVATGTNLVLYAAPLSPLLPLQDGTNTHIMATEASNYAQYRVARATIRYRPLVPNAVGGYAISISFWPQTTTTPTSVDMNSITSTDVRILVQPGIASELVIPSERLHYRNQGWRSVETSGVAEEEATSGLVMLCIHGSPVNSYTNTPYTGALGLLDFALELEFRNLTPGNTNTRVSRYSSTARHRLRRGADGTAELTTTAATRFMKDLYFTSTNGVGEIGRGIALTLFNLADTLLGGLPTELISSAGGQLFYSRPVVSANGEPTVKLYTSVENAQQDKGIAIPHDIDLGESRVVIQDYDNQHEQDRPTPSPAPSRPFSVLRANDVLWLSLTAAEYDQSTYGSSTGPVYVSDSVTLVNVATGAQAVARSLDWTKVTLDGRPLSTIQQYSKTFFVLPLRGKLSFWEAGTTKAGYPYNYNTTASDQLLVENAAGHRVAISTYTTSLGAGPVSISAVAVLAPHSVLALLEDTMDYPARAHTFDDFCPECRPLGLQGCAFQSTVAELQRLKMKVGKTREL

Which binding does the source give for “Hepatitis E virus (HEV) capsid protein open reading frame 2 (ORF2), His-tagged (from UniProt P33426 20-660)” here?
The binding was “binds”.

From article PMC3179511
